Drawing on PMC7698757, this text covers binding for two molecules.

The target in assay [1] is T1, CESA3-Cub (Arabidopsis thaliana) (UniProt Q941L0).
T1 sequence: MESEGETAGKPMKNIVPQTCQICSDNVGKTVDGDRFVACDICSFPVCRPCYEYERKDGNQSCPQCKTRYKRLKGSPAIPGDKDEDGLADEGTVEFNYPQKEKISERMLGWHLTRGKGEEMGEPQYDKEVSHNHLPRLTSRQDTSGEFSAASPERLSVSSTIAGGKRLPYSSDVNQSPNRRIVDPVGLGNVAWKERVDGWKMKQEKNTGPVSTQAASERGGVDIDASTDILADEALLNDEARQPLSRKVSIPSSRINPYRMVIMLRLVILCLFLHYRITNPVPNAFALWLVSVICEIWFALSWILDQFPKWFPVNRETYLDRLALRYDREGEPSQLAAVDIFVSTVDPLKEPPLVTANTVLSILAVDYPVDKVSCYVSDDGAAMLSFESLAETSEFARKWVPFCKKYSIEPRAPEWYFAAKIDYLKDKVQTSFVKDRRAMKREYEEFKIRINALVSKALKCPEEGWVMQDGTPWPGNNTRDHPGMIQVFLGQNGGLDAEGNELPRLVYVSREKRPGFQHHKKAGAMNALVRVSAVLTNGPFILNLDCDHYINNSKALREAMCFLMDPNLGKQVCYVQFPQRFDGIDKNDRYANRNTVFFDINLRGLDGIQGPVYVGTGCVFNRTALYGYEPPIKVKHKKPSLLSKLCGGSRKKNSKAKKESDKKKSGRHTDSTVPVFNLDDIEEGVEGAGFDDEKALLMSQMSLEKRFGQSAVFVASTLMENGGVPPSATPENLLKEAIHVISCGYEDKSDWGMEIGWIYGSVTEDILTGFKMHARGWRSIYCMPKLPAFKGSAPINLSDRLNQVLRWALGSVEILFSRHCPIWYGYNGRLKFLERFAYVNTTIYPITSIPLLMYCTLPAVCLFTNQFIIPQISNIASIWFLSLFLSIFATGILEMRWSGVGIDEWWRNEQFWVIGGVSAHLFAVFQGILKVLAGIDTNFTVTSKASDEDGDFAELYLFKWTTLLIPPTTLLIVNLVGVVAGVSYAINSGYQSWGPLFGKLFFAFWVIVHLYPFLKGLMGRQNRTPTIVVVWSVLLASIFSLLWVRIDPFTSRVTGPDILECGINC
Kind of assay: two-hybrid; split-ubiquitin membrane-based yeast two-hybrid (SU-Y2H) screen for CESA interactive proteins, CESA3 and CESA6 as baits.

The target in assay [2] is T2, CESA6-Cub (Arabidopsis thaliana) (UniProt Q94JQ6).
T2 sequence: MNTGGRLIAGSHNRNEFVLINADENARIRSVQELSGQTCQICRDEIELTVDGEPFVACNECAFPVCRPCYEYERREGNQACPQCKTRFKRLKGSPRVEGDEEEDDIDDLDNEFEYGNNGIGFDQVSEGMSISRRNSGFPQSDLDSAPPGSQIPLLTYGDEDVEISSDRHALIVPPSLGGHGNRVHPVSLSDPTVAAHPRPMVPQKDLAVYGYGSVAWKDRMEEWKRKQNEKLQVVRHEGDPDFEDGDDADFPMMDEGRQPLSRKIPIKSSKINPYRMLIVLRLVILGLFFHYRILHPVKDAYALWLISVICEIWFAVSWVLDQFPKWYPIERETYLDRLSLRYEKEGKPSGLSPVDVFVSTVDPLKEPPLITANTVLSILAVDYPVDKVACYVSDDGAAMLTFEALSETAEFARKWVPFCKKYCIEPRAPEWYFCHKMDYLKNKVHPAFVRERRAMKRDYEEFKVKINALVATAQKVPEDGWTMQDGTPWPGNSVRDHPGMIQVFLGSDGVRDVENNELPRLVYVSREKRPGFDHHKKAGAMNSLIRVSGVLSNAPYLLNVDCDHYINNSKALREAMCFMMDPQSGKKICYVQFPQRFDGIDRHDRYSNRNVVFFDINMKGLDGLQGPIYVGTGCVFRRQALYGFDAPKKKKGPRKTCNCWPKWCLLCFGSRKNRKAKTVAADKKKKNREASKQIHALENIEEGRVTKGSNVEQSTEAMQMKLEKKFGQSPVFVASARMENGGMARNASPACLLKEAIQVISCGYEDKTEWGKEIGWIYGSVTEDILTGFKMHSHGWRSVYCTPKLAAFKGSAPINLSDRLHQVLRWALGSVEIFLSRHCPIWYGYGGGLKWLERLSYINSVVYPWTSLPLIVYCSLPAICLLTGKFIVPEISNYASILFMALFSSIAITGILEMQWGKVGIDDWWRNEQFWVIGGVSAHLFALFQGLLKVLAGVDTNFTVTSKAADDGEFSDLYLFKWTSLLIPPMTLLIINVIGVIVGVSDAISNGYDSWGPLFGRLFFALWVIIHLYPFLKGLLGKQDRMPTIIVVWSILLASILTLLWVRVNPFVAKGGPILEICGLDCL
The assay is described as above.

The target in assay [3] is T1, CESA3-Cub (Arabidopsis thaliana). Kind of assay: two-hybrid; split-ubiquitin yeast two-hybrid, pairwise: NubG-PAS2 co-expressed with CESA-Cub in S. cerevisiae THY.AP4, 30 °C; growth on dropout medium and beta-galactosidase (X-Gal, filter lift).
In assay [4] the target is T2, CESA6-Cub (Arabidopsis thaliana). Described as above.

These are yes or no findings as the source states them, for the method shown. Some entries that bind do so weakly or less than the wild type.

B1: …O2 (PAS2), prey clone found in the split-ubiquitin yeast two-hybrid screen (protein, UniProt Q8VZB2 1-221)
chain: MAGFLSVVRRVYLTLYNWIVFAGWAQVLYLAITTLKETGYENVYDAIEKPLQLAQTAAVLEILHGLVGLVRSPVSATLPQIGSRLFLTWGILYSFPEVRSHFLVTSLVISWSITEIIRYSFFGFKEALGFAPSWHLWLRYSSFLLLYPTGITSEVGLIYLALPHIKTSEMYSVRMPNILNFSFDFFYATILVLAIYVPGSPHMYRYMLGQRKRALSKSKRE
Turning to B1, the binding result in assay [1] and in assay [2] was “binds” throughout.

B2: NubG-PAS2 (protein, UniProt Q8VZB2 1-221)
chain: B1 chain
Take B2: the binding entry in assay [3] and in assay [4] was “binds” each time.
